Data reported in patent publication US20210115104A1, “AMYLIN ANALOGUES” (Zealand Pharma A/S, priority 2015, published 2021).
For at least one compound, name, drawing or mass did not settle the structure. *1 amine or outer side, *2 acyl side, *3 side chain or, on linkers, in order; H or OH if unused. Where a SMILES comes first, the peptide text is derived from it. Bridges are numbered along the chain shown (N, C = ends). The star is where a group is joined. C20 diacid = O=C(O)CCCCCCCCCCCCCCCCCCC(=O)*; γGlu = O=C(O)[C@H](CCC(=O)[*:2])N[*:1]

Assays:
[1] = biological target: T1, human calcitonin receptor (hCTR2) (Homo sapiens, UniProt P30988); assay: hCTR2 cAMP assay (AlphaScreen) in COS7 cells; type: cell-based; conditions: Example 10 pairs, read-out: hCTR2 EC50 (Table 6)
T1 construct: expressed in transfected cells
T1 sequence (P30988 25-474): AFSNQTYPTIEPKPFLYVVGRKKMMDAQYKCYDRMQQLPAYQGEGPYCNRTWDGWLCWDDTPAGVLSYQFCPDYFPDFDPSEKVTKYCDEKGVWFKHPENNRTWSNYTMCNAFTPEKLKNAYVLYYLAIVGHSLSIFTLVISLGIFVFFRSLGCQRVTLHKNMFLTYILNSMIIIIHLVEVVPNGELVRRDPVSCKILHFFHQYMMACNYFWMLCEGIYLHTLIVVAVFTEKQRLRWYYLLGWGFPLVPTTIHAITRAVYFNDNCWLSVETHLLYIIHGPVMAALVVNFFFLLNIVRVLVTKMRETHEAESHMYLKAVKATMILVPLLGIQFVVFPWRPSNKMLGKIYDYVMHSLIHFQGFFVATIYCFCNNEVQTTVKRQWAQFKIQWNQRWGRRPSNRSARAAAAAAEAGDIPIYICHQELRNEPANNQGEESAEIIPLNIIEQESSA
Source text: (§1) The cell line COS7, originating from African Green Monkey kidney fibroblast cells, was used for establishment of the stable cell lines described below. The COS7 cellular background was used due to it being RAMP naïve, and as such it provides the best available system for testing of the monomeric hCTR and different heterodimeric amylin receptor subtypes functionally generated by introduction of the individual RAMPs.
A cell line expressing the human calcitonin receptor (hCTR2) was generated in the COS7 cellular background as stable clones. In brief, hCTR2 (GI: 4502547) was amplified by PCR using primers encoding terminal restriction sites for subcloning. The 5′-end primers additionally encoded a near Kozak consensus sequence to ensure efficient translation. The fidelity of the DNA encoding the receptor was confirmed by DNA sequencing. The PCR products encoding the receptor were subcloned into a mammalian expression vector containing a neomycin (G418) resistance marker. The mammalian expression vector encoding the receptor was transfected into COS7 cells by a standard liposome transfection method. […]
(§2) In vitro activity of test peptides at the hCTR2 and hAMYR3 receptors was assessed by measuring the induction of cAMP following stimulation of the receptor using the AlphaScreen® cAMP Assay kit from Perkin-Elmer. […]

[2] = biological target: T2, human amylin receptor 3 (hAMYR3), hCTR2 co-expressed with hRAMP3 (Homo sapiens, UniProt O60896+P30988); assay: hAMYR3 cAMP assay (AlphaScreen) in COS7 cells; type: cell-based; conditions: Example 10 pairs, read-out: hAMYR3 EC50 (Table 6)
T2 construct: expressed in transfected cells
T2 sequence (P30988 25-474): T1 sequence (P30988 25-474)
T2 sequence (O60896 24-148 partner): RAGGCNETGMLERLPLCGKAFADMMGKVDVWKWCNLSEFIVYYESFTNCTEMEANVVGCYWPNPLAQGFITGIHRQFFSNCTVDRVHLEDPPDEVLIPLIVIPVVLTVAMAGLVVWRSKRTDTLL
Source text: as §1
A cell line expressing the human amylin receptor 3 (hAMYR3) was generated in the COS7 cellular background as stable clones. In brief, hCTR2 (GI:4502547) and hRAMP3 (GI:118572586) were amplified by PCR using primers encoding terminal restriction sites for subcloning. The 5′-end primers additionally encoded a near Kozak consensus sequence to ensure efficient translation. The fidelity of the DNA encoding the receptor was confirmed by DNA sequencing. The PCR products encoding the receptor were subcloned into a proprietary tri-cistronic mammalian expression vector with RAMP3, hCTR2 and neomycin (G418) resistance marker. The mammalian expression vector encoding the receptor was transfected into COS7 cells by a standard liposome transfection method. […]
as §2

`CC[C@H](C)[C@H](NC(=O)[C@@H]1CCCN1C(=O)CNC(=O)[C@H](Cc1ccccc1)NC(=O)[C@H](CO)NC(=O)[C@H](CO)NC(=O)[C@H](Cc1c[nH]cn1)NC(=O)[C@H](Cc1c[nH]cn1)NC(=O)[C@H](CC(C)C)NC(=O)[C@H](Cc1ccccc1)NC(=O)[C@H](CCC(=O)O)NC(=O)[C@H](C)NC(=O)[C@H](CC(C)C)NC(=O)[C@H](CCCNC(=N)N)NC(=O)[C@H](CCC(N)=O)NC(=O)[C@@H](NC(=O)[C@H](C)NC(=O)[C@@H]1CSSC[C@H](NC(=O)[C@H](CCCNC(=N)N)NC(=O)CC[C@H](NC(=O)CCCCCCCCCCCCCCCCCCC(=O)O)C(=O)O)C(=O)N[C@@H](CC(N)=O)C(=O)N[C@@H]([C@@H](C)O)C(=O)N[C@@H](C)C(=O)N[C@@H]([C@@H](C)O)C(=O)N1)[C@@H](C)O)C(=O)N[C@@H](CC(C)C)C(=O)N1CCC[C@H]1C(=O)N1CCC[C@H]1C(=O)N[C@H](C(=O)N[C@@H](CC(N)=O)C(=O)N[C@H](C(=O)NCC(=O)N[C@@H](CO)C(=O)N[C@@H](CC(N)=O)C(=O)N[C@H](C(=O)N1CCC[C@H]1C(N)=O)[C@@H](C)O)C(C)C)[C@@H](C)O` [Compound 97, reference compound] ({C20 diacid-γGlu}-RCNTATCATQRLAEFLHHSSFGPILPPTNVGSNTP-NH2; disulfide 2-7) gave an EC50 [1] of 0.1 nM and an EC50 [2] of 0.13 nM.
